Earlier results as cited in patent US20110003772A1, “USE OF SPHINGOLIPIDS IN THE TREATMENT OF TYPE 2 DIABETES MELLITUS, INSULIN RESISTANCE AND METABOLIC SYNDROME” (priority 2004, published 2011).
At least one compound was matched to its structure with a doubt left.

Settings: animal tests; literature, Beltowski et al., 2002; cited from earlier work

Q: With `CC(C)OC(=O)C(C)(C)Oc1ccc(C(=O)c2ccc(Cl)cc2)cc1` [Fenofibrate] as the compound, how does the antioxidant effect read?
A: The antioxidant effect was “antioxidant effect”.

Q: And the “effect on total plasma triglycerides and cholesterol concentrations” value?
A: Its value is “no significant effect”.
